{"source": "patent US6590123B2", "about": "“Aminobenzoic acid derivatives having anti-tumorigenic activity, methods of making and using the same” (Mount Sinai School of Medicine of New York University, priority 1998, dated 2003)", "note": "Where a name gives a salt, the structure may show the parent alone."}
{"test_system": "P338 leukemia lymphoma cells", "assay": "Survival and ED50 in mice implanted i.p. with P338 lymphoma", "assay_type": "in vivo, male C57 BL/6JX mice", "protocol": "FIG. 9 is a plot graph of the survival rate of male C57 BL/6JX mice implanted (i.p.) with P338 lymphoma, from 10 to 40 days after implantation. Two groups were used for the study: a control group of ten and a test group of ten that were treated with 20 mg/kg, (i.p.) of compound 8 at 2 and 8 days post-implantation.\nThe in vivo efficacy of 3-BAABU and 3-IAABU of the present invention was asssessed in a murine model, along with known anti-tubule agents, vinblastine and paclitaxel, as a comparative standard. Approximately 10^6 P338 leukemia lymphoma cells/mouse were implanted intra-peritoneal (i.p.) into male C57 BL/6JX mice (Jackson Laboratories, N.Y.). On days 2 and 8 post-implantation, drugs were administrated i.p. at the following concentration ranges: 3-BAABU from 16.6 to 116 μmole/kg, 3-IAABU from 14.4 to 101 μmole/kg, vinblastine from 2.2 to 20 μmole/kg and paclitaxel from 28 to 57 μmole/kg.\nBoth control and treated animals were examined for ascitic tumor burden daily for 35 days. […] Therapeutic index was defined as the ratio of LD50 (lethal dose) to ED50 (effective dose)."}
{"smiles": "NC(=O)NC(=O)c1cccc(NC(=O)CBr)c1", "note": "[Compound 8, 3-Bromoacetoamido, benzoylurea]", "therapeutic index (ratio of LD50 to ED50)": 3.4}
{"smiles": "CC(=O)O[C@H]1C(=O)[C@@]2(C)[C@H]([C@H](OC(=O)c3ccccc3)[C@]3(O)C[C@H](OC(=O)[C@H](O)[C@@H](NC(=O)c4ccccc4)c4ccccc4)C(C)=C1C3(C)C)[C@]1(OC(C)=O)CO[C@@H]1C[C@@H]2O", "note": "[Paclitaxel]", "therapeutic index (ratio of LD50 to ED50)": 1.2}
{"smiles": "CC[C@]1(O)C[C@@H]2CN(CCc3c([nH]c4ccccc34)[C@@](C(=O)OC)(c3cc4c(cc3OC)N(C)[C@H]3[C@@](O)(C(=O)OC)[C@H](OC(C)=O)[C@]5(CC)C=CCN6CC[C@]43[C@@H]65)C2)C1", "note": "[Vinblastine, vinblastine sulfate]", "therapeutic index (ratio of LD50 to ED50)": 2.0}
{"smiles": "NC(=O)NC(=O)c1cccc(NC(=O)CI)c1", "note": "[Compound 9, 3-Iodoacetoamido, benzoylurea]", "therapeutic index (ratio of LD50 to ED50)": 3.4}
